Experimental findings from patent US20250296975A1 are described below.

Sequences of proteins named here, by UniProt entry; tags and fusion partners are left off.
UniProt O14493: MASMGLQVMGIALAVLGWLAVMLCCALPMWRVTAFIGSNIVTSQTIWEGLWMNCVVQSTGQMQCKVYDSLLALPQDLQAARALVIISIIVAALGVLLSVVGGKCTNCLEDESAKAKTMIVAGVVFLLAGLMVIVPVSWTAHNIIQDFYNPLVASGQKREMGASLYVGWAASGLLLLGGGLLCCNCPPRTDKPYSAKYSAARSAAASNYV

In the experiment the target is claudin-4 (UniProt O14493). Briefly: flow cytometry on HCC38 cells compared to HEK.

These are yes or no findings as the source states them, for the method shown. Some binding calls cover weakened binding; strength is not graded here.

B1: claudin-4 targeting scFv EK01 (scFv, V domains shown, not shown: large carriers; small tags and cut ends)
VH: EVQLVQSGGGLIQPGGSLRLSCAASGFTVSSNYMSWVRQAPGKGLEWVSVIYSGGSTYYADSVKGRFTISRDNSKNTLYLQMNSLRAEDTAVYYCARDNPLSAFDIWGQGTLVTVSL
VL: DIVMTQTPSTLSASVGDRVTITCRASQSINSWLAWYQQKSGKAPKLLIYKASSLGSGVPSRFSGSGSDIEFTLTISSLQPDDFATYYCQQYDDLPLTFGGGTKVEIK
As for B1, the binding result is recorded as “binds”.
